Construct, isoform or probe ends are uncertain for at least one entry. At least one verdict rests on a figure or table, not on a statement of the authors.
Tested on: PhiKZ nvRNAP GP55 (beta'-like) + PhiKZ nvRNAP GP74 (beta'-like) + PhiKZ nvRNAP GP71-73 (beta-like) + PhiKZ nvRNAP GP123 (beta-like) + PhiKZ nvRNAP GP68 (sigma-like, promoter recognition)
Test: EMSA (native PAGE)
Conditions: 40 mM Tris-Cl pH 8.0, 10 mM MgCl2, 5 mM DTT, 1 mM ATP/CTP/GTP, 30 min at 37 C, nvRNAP 0.1 mg/mL with scaffold 1:1; native PAGE 4-20% TGX at 4 C; recombinant protein; label: Cy5 at 5' end of RNA (printed Cy5-GUAGA)

Sequence: AGTAATTTTAGTGAATGTATTTGCTATATTGCTATCCTAACAGTTCCCAAAAGCCTAAAGTTACAATATAGGTAC / GTACCTATATTGTAACTTTAGGCTTTTGGGAACTGTCTACATAGCAATATAGCAAATACATTCACTAAAATTACT / GUAGA [p119L-4nt RNA/DNA template]
- binding result: binds
